Z-score data for 30 sequences are collected here from PubChem BioAssay AID1508600 (Functional Genomics Laboratory (NCATS/FGL), 2020).

In all, about 53,000 sequences went through this assay and about 3,700 (7%) were called active.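 How the source made its calls: active means gene knockdowns whose robust z-score for IL-1 alpha signal is at least 2 or at most -2, so actives lie on both sides; inactive means the rest.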 This is one part of the list.

This experiment is described as follows: Components of the Cytosolic LPS Sensing Pathway: Gene Identification via Genome-wide siRNA Screen.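 Further: robust z of the log signal after scaling to non-targeting control siRNA wells of the plate.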 The note with it: RAW264.7 macrophages, IL-1a HTRF, actives lie on both sides, screened at 100 nM (by protocol), cells primed 5 h with Pam3CSK4 first. The procedure, abridged:
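RAW264.7 mouse macrophages reverse-transfected with single siRNAs (100 nM final) for 48h, primed with Pam3CSK4 for 5 hours, then transfected with LipidA for 24 hour. Supernatant IL-1a read by HTRF; values normalized to negative-control median, log-transformed robust z-scores.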
For GGGUUAGCAACUUCAAAUATT against Zmynd19, the z-score was inactive: 0.996. With GGAGCAUUAUAUCAAUCCUTT against Zfp111, the z-score was active: 2.16. The result for GGAGUUGGACCUGUCAGAGTT against Daxx reads inactive: -1.25. Consider GGCAGUAAAUAGUAAGAAATT against Ccr9, for which the z-score is inactive: -0.716.

Consider GGAAAACUGCUUUGAGCUGTT against Thap7, for which the z-score was active: 2.72. For the sequence GGAACCAGAGAAAGAAGAUTT against Nfkbie, the z-score was inactive: -0.566. The result for GGAUCACAGCAGAAGAAAUTT against Tmem144 reads active: -2.95; that for GGCUCUGGUCCAAGAAAUGTT against C4b, inactive: -0.176; that for GGAAGCAUUUCUUAAUUCATT against Ncoa4, inactive: 1.57. On to GGAAGAGAAAUUCUUCCUCTT against Alg5, for which the z-score is inactive: 0.0359. The result for GCGGUUCACUAUCUCCCUATT against Khsrp reads inactive: -0.0936; that for GGAGAUCGACCACUUCUUCTT against Olfr1395, inactive: -1.52. In the case of CCGGAACUAUCAAUAAAUGTT against Mlst8, the z-score was inactive: -1.09. The result for GGCCGUGUGUUUCUGUAACTT against Matk reads inactive: 0.626; that for GCCUAUUCGAAUUUGGGAATT against Ogt, inactive: -0.0977; that for GCAUUCAAAAUAGCUCUAUTT against Calb1, inactive: 0.663. For the sequence GGUACAAAAGAAAACUGCUTT against Slbp, the z-score was inactive: 0.00127. The result for “GGCUAAUACAUAAAGUAGUTT against 4930515G01Rik” reads inactive: 0.452; that for CGUGAACAGGUGGUUGGACTT against Hspa14, inactive: 0.559; that for GGUGGUGGUGGAAAAGAAGTT against Vars, inactive: -0.272. For the sequence GGGCCAAAUAUCAUAAACUTT against Strn4, the z-score is inactive: -0.0105. Take GCCCGAGGUCAUCCUUUUATT against Cbx4: the z-score was inactive: -1.76.

Regarding GCCUAAACUACCCUUAUAGTT against Ocln, the z-score was active: 3.4. Under CCCAAAGCCCUUUUAAACUTT against Hmbs stands inactive: 0.301; under GGAUGGAAUGCAGAAACGATT against Pcp2, inactive: -0.061. With GGUCCAGAGUUAUGAUUUGTT against Mrm3, the z-score was inactive: -0.184. Under CGAUACAUAUCCAUUGUAUTT against Skint9 stands inactive: 0.61; under GCCCUGGCAUGCUAACAAATT against Prpf3, inactive: -0.749. Under GAGUGUCUUGAACACAGCCTT against Olfr635 stands inactive: -0.0711; under CGUGGUGAACGAGAUUGAUTT against Kcnab1, inactive: 1.21.
